# No constants are given. Whether binding was seen depends on the method and setting. A result given as binding can be weak or reduced; the word gives no strength.
# Molecular target: T1, tape measure protein (TMP) gp38 of siphophage T1 (phage T1 (ATCC 11303-B1)) (UniProt Q6XQC4)
# T1 sequence: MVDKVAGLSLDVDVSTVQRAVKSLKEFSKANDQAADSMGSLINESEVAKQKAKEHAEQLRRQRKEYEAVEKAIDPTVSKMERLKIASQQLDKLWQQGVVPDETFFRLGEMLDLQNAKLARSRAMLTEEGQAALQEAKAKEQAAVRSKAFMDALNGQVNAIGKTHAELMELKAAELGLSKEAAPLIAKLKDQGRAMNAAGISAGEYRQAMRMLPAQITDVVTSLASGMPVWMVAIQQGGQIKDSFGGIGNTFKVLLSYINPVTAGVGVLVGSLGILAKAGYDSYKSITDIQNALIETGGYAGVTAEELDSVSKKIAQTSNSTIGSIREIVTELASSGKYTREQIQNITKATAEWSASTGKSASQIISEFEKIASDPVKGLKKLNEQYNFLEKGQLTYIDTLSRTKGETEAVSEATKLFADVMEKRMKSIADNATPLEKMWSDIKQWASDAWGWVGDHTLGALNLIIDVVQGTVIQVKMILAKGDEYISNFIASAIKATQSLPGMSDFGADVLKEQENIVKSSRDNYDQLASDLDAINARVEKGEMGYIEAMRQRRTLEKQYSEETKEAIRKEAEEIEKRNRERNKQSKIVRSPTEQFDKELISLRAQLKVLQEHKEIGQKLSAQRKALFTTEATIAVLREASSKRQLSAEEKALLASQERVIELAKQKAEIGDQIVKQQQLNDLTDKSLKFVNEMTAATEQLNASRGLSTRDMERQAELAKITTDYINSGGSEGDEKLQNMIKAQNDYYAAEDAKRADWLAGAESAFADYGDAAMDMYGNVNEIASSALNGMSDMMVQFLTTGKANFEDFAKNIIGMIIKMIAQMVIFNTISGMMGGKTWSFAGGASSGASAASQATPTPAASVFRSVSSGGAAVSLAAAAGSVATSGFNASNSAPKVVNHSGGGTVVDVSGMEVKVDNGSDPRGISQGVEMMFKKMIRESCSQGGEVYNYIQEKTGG
# Assay: cryo-EM structure; tail tip of purified mature T1 virions (laboratory-adapted, no lateral fibers); 6.1 Å, after local refinement 4.3 Å, threefold symmetry imposed
substance,measurement,value
insertion protein gp34 of siphophage T1,binding,binds
